Results are given in words; binding and its absence hold for the method and conditions named. In cells and extracts the contact can be indirect. A yes stands for co-enrichment or nearness to the bait. Other partners may have been found.
Biological target: Flag-TurboID-Plk1 PBD WT (UniProt P53350)
Test: proximity labelling

Substance: INCENP (from UniProt Q9NQS7 1-918)
- binding: binds
